# Source: patent publication US20240181111A1, “SYSTEMS AND METHODS FOR AIR SANITIZATION USING FORMULAS CONTAINING AN ORGANIC ACID” (The Clorox Company, priority 2022, published 2024)
# Some entries share one result that the patent states for a list of compounds.
# Tested on: airborne phi 6
# Experiment: 1 m^3 air chamber log reduction against airborne phi 6, sprayer Dv50 about 70 μm
# Conditions: after 10 minutes; FIG. 10; 2% lactic acid alone, 4.2% 1,2-hexanediol alone, or both
row,SMILES,log reduction against airborne phi 6
1,CC(O)C(=O)O (centres unmarked) [lactic acid],≤ 1 log
2,"CCCCC(O)CO (centres unmarked) [1,2-hexanediol (HDO), 1,2-hexanediol]",≤ 1 log
